Measured values published in PubChem BioAssay AID1671190 (National Center for Advancing Translational Sciences (NCATS), 2021).
Out of some 580,000 compounds screened, about 6,100 (1.1%) were called active. The shares of active, inactive and inconclusive entries below differ from those in the screen. The call rests on the fitted dose curve; in most records, active means well fitted inhibition curve with a large enough effect; inconclusive means small, poorly fitted or top-dose-only effect, or another doubt; inactive means no such curve, though single readings can be large or run the other way. A potency beside an inconclusive call is a rough fit, not a confirmed value.

By UniProt entry, the sequences of proteins in these tests, tags left out. Where a name states a change or a piece, a line headed by the entry shows the natural chain unless it says otherwise.
UniProt P18054: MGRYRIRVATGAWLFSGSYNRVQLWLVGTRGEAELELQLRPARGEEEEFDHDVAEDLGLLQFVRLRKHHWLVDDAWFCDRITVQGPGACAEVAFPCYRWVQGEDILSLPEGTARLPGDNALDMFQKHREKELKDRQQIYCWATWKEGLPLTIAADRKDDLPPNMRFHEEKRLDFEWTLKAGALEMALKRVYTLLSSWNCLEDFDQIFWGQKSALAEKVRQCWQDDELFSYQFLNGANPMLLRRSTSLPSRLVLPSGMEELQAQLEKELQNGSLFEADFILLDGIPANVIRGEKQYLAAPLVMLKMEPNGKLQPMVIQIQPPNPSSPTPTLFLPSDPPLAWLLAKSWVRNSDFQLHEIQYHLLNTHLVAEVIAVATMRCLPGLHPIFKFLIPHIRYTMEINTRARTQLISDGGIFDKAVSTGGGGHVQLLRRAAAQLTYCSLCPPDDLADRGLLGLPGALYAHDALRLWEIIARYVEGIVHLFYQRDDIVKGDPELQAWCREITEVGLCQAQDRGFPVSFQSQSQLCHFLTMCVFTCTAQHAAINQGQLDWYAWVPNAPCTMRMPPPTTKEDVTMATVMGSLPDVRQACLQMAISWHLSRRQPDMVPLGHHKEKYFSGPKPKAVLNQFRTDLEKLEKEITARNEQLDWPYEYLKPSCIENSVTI

Target: Polyunsaturated fatty acid lipoxygenase ALOX12 (Homo sapiens) (UniProt P18054)
Experiment: Primary qHTS assay for inhibitors of human arachidonate 12S-lipoxygenase (ALOX12): Round 2
Details: purified 12hLO, xylenol orange hydroperoxide absorbance; activity change, negative = inhibition: at 108 µM (top of the series) unless noted
Outline: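 Purified human 12hLO (150 nM final) in 25 mM Hepes, 0.01% Triton X-100, pH 7.0 was preincubated 15 min at room temperature with compound. Then 40 uM arachidonic acid was added, 30 min. Hydroperoxide was read by Fe-XO absorbance ratio 573/405 nm.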
On the % scale 0 is the no-effect control and ±100 the full control effect; potency means the concentration at half of the fitted maximal effect.

Row | Compound | Potency | activity change, negative = inhibition
1 | CCOC(=O)c1c(C)[nH]c(O)c1C=Nc1ccc(C(F)(F)F)cc1 | inconclusive: 50.1 µM [inhibitor, partial curve, poor fit] | –
2 | O=C(O)CCN1C(=O)/C(=C\c2ccncc2)SC1=S | – | inactive: -17.9%
3 | CC1(C)CC(NC(=S)Nc2ccc(Br)cc2)CC(C)(C)N1 | inconclusive: 44.7 µM [inhibitor, partial curve, poor fit] | –
4 | O=S(=O)(NCC1(COc2ccc(C(F)(F)F)cn2)C[C@@H](O)[C@@H](O)C1)c1ccc(F)cc1 (some centres undefined) | inconclusive: 25.1 µM [inhibitor, single point] | –
5 | CN(C)c1ncc2nc(-c3ccc(Cl)cc3)c(=O)n(Cc3ccc(F)cc3)c2n1 | – | inactive: 0%
6 | O=C(O)C(=O)/C(=C\c1ccccc1)c1ccc2ccccc2n1 | inconclusive: 1.78 µM [inhibitor, full curve, poor fit] | –
7 | CC(=O)Nc1ccc(NC(=O)C(C)C)cc1Cl | inconclusive: 63.1 µM [inhibitor, partial curve, poor fit] | –
8 | CCOc1ccc2oc(=O)cc(CN3CCN(Cc4ccc(C)cc4)CC3)c2c1 | inconclusive: 6.31 µM [inhibitor, full curve, poor fit] | –
9 | Cc1ncc(CO)c2c1Oc1nc(-c3ccccc3)nc(SCC(=O)N3CCOCC3)c1C2 | – | inactive: -22.5%
10 | C#CCOc1c(Cl)cc(/C=C2/C(=O)ON=C2C)cc1OC | active: 28.2 µM | –
11 | CCc1ccccc1-n1c(N)c(C(=O)OC)sc1=S | inconclusive: 50.1 µM [inhibitor, partial curve, poor fit] | –
12 | CC(C)CNC(=O)CCc1nc(C2CCCN2C(=O)NC(C)C)no1 (centres undefined) | inconclusive: 50.1 µM [inhibitor, partial curve] | –
13 | COCCN(C)C[C@H]1C[C@@H](CO)CN(C(=O)Cc2ccc(C)c(C)c2)C1 | inconclusive: 112 µM [inhibitor, partial curve, poor fit] | –
14 | Cc1cnc(C(=O)N[C@@H]2CCC[C@@H]2C(=O)NCCCn2cccn2)cn1 | – | inactive: 30%
15 | CC(C)(C)c1ccc(S(=O)(=O)NCc2ccccn2)cc1 | – | inactive: -47.1%
16 | CCCn1cc(S(=O)(=O)CC(=O)N2CCc3ccccc32)c2ccccc21 | – | inactive: 13.1%
17 | Cn1c(=O)[nH]c(=O)c2c1[nH]c(=S)n2Cc1ccc(Cl)cc1 | inconclusive: 28.2 µM [inhibitor, partial curve, poor fit] | –
18 | C=CCn1c(C)cc(-c2csc(N)n2)c1C | inconclusive: 50.1 µM [inhibitor, partial curve, poor fit] | –
19 | Cc1cccc(Nc2nc(-c3ccc(C)cc3C)cs2)c1 | inconclusive: 12.6 µM [inhibitor, full curve, poor fit] | –
20 | Cc1cc(C[C@@H]2COC[C@@H]2NC(=O)COc2cccc(C)c2C)on1 | – | inactive: 20.6%
21 | CN(C)c1cccc(Nc2cc3[nH]c(-c4cccc(F)c4)cc3cn2)c1 | inconclusive: 14.1 µM [inhibitor, partial curve, poor fit] | –
22 | CCNC(=S)N(Cc1ccc(OC)cc1)C1CC(=O)N(c2ccc(OCC)cc2)C1=O (centres undefined) | inconclusive: 63.1 µM [inhibitor, partial curve, poor fit] | –

Row | Compound | Potency | activity change, negative = inhibition
23 | Nc1nc(-c2ccccn2)nc(N)c1Cc1ccc(Cl)cc1Cl | – | inactive: 6.94%
24 | CC(C)[C@H](N)c1nnc2n1N=C(c1ccc(Cl)cc1)CS2 | – | inactive: 6%
25 | CCNc1nc(NCC)nc(N/N=C/c2ccc(O)c(OC)c2)n1 | inconclusive: 14.1 µM [inhibitor, partial curve, poor fit] | –
26 | CC(C)C(NC(=O)c1c(F)cccc1F)C(=O)N1CCN(S(=O)(=O)/C=C/c2ccccc2)CC1 (centres undefined) | inconclusive: 112 µM [inhibitor, single point] | –
27 | COc1ccc(NC(=O)Nc2ccc(C)n(CC(=O)O)c2=O)cc1 | inconclusive: 7.08 µM [inhibitor, full curve, poor fit] | –
28 | CCc1nc2ccccc2n1CCC(C)C | – | inconclusive: -34.6% [inhibitor]
29 | Fc1ccc(COc2ccccc2C(=S)N2CCCC2)cc1 | inconclusive: 56.2 µM [inhibitor, partial curve, poor fit] | –
30 | O=C(C#Cc1ccccc1)c1ccccc1 | – | inactive: -12%
31 | CC(C)N1CCN(C2CCN(c3ccc4c(c3)CCC4)CC2)CC1CCO (centres undefined) | – | inactive: 0.0151%
32 | CCCCCC(=O)N1C[C@H](n2cc(-c3ccc(F)cc3)nn2)[C@@H](O)C[C@@H]1c1ccc(C)cc1 | inconclusive: 89.1 µM [inhibitor, single point] | –
33 | C/C(=N/NC(N)=S)c1ccc(Cl)cc1Cl | inconclusive: 79.4 µM [inhibitor, partial curve, poor fit] | –
34 | O=C(N/N=C/c1cc(Br)cc([N+](=O)[O-])c1O)c1ccc(NC(=O)c2ccc(F)cc2)cc1 | inconclusive: 56.2 µM [inhibitor, partial curve, poor fit] | –
35 | CCOC(=O)C1CCN(C(=O)COC(=O)C23CC4CC(CC(C4)C2)C3)CC1 | – | inactive: 13%
36 | CC(C)(C)NC(=O)C[C@H]1C[C@H](C(=O)N2CCCCC2)[C@@]2(C)c3[nH]c4ccc(Cl)cc4c3CCN2C1=O | – | inactive: -7.46%
37 | Brc1ccccc1OCCN1CCCC1 | inconclusive: 0.316 µM [inhibitor, full curve, poor fit] | –
38 | c1ccc2nc(-c3ccc4c(c3)OCO4)ccc2c1 | inconclusive: 25.1 µM [inhibitor, single point] | –
39 | CC1CCc2noc(NC(=O)c3ccc(F)cc3)c2C1 (centres undefined) | – | inactive: 5.87%
40 | COc1ccc(C(CC(=O)c2ccc(O)cc2)S(=O)(=O)c2ccc(C)cc2)cc1 (centres undefined) | inconclusive: 79.4 µM [inhibitor, single point] | –
41 | Cc1cc(O)c(/C=N/Nc2ccc(F)cc2)c(=O)o1 | inconclusive: 0.631 µM [inhibitor, full curve, poor fit] | –
42 | CCOc1ccc(S(=O)(=O)N2CCCCC2)c2ccccc12 | – | inactive: 8.19%
43 | COc1ccc(-c2nnc3sc(CCN4C(=O)c5ccccc5C4=O)nn23)cc1 | – | inactive: -12.2%
44 | COC(=O)CNC(=O)c1cc2occc2n1Cc1ccccc1 | inconclusive: 50.1 µM [inhibitor, partial curve, poor fit] | –

Looked up one by one from the list above:
Row | Compound | Potency | activity change, negative = inhibition
31 | CC(C)N1CCN(C2CCN(c3ccc4c(c3)CCC4)CC2)CC1CCO (centres undefined) | – | inactive: 0.0151%
27 | COc1ccc(NC(=O)Nc2ccc(C)n(CC(=O)O)c2=O)cc1 | inconclusive: 7.08 µM [inhibitor, full curve, poor fit] | –
